We go through two substances from publication PMC4714548.

For assay [1], the target named is T1, canonical transient receptor potential (TRPC) 1 (rabbit (endogenous in portal vein VSMCs)) (UniProt Q9TUN9).
T1 sequence: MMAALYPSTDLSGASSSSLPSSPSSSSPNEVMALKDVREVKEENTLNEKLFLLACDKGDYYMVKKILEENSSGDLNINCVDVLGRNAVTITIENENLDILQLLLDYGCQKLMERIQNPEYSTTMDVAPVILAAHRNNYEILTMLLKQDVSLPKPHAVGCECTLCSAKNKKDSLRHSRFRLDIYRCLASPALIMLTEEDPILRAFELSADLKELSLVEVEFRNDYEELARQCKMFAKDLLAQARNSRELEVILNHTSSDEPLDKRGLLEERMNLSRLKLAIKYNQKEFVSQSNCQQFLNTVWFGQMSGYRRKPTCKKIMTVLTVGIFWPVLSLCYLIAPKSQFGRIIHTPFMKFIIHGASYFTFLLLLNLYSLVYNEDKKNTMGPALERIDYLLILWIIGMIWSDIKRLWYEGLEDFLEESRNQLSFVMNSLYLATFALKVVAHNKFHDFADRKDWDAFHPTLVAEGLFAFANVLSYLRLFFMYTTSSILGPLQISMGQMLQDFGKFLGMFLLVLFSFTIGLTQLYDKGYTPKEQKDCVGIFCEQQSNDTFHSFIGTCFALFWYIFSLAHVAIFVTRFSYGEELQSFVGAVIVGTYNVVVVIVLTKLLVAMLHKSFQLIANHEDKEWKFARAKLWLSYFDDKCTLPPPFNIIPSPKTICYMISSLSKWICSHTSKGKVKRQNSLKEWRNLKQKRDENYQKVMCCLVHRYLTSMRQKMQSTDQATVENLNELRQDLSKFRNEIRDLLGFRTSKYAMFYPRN
Put plainly: proximity ligation; Duolink in situ PLA on fixed, permeabilised resting VSMCs; anti-TRPC1, anti-Gαq and anti-PLCβ1 antibodies at 1:200.

Assay [2] has as its target T1, canonical transient receptor potential (TRPC) 1 (rabbit (endogenous in portal vein VSMCs)). The assay is described as follows: condition: only unstimulated vessel segments (no store depletion); co-IP; Supplemental Fig. S2C: unstimulated freshly isolated vessel segments; RIPA lysates.
For assay [3] the target is unchanged. The assay is described as follows: co-IP; Supplemental Fig. S2C: freshly isolated vessel segments pretreated with 10 µM CPA; RIPA lysates; the PLCγ1 control was done with BAPTA-AM and with CPA.
Assay [4] shares this target. The assay is described as follows: condition: only unstimulated cells (no store depletion); co-IP; unstimulated primary cultured rabbit portal vein VSMCs; RIPA lysates; IP with anti-TRPC1 antibodies, Western blot with anti-Gαq or anti-PLCβ1. A general note: In western blotting, separated proteins are transferred to a membrane and probed.
Assay [5] shares this target. Put plainly: proximity ligation; Duolink in situ PLA on fixed, permeabilised VSMCs pretreated with 50 µM BAPTA-AM for 10 min (also with scrambled or PLCβ1 shRNA); anti-TRPC1, anti-Gαq and anti-PLCβ1 antibodies at 1:200.
For assay [6] the target is unchanged. The assay is described as follows: co-IP; primary cultured rabbit portal vein VSMCs pretreated with 50 µM BAPTA-AM for 10 min (also with scrambled or PLCβ1 shRNA); RIPA lysates; IP with anti-TRPC1 antibodies, Western blot with anti-Gαq or anti-PLCβ1.

These are yes or no findings as the source states them, for the method shown. In cells and extracts the contact can be indirect. For some of these results: A result given as binding can be weak or reduced; the word gives no strength.

“PLCβ1 (rabbit (endogenous in portal vein VSMCs)) (enzyme)”: the binding result is “no binding (only resting cells (no store depletion))” in assay [1]; “no binding” in assay [2]; “binds” in assay [3]; “no binding” in assay [4]; “binds” in assay [5]; “binds” in assay [6].
With “PLCγ1 (rabbit (endogenous in portal vein VSMCs)) (enzyme)”, the binding result in assay [3] was “no binding”.
